Measurements reported in PubChem BioAssay AID504808 (Drosophila RNAi Screening Center, 2011)
The deposit covers about 21,000 reagents; below is a random part of those that have a named target and a result. Over the whole deposit, 18 (0.084%) got an active call. 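Raw counts without plate normalisation, one of two replicates; the ratio scores behind the calls were not deposited.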 Unmarked entries are inactive. The numbers tell different reagents against one gene apart. Reagent sequences are not shown. The record does not give: the amount of reagent, the time to read-out.

Aim: 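Genes whose loss lifts activity of an E2F-responsive reporter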 (primary screen)
Cells: Drosophila S2 cells
Reagent: long dsRNA against Drosophila genes
Read-out: 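Dual luciferase plate measurements; E2F-specific signal taken as firefly over Renilla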
Scale: E2F firefly: higher = more E2F reporter activity; Renilla normaliser: higher = more normaliser reporter signal
Call rule: 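a knock-down counted as active when the firefly/Renilla E2F signal rose above 50%, a threshold chosen arbitrarily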

With CG13747, what was measured?
E2F firefly, rep 1: 1.43e5; Renilla normaliser, rep 1: 4397

How did the screen score Best2?
E2F firefly, rep 1: 1.00e5; Renilla normaliser, rep 1: 4018

For CG42365, what does the deposit list?
E2F firefly, rep 1: 98476; Renilla normaliser, rep 1: 4144

What did the screen give for CG17929?
E2F firefly, rep 1: 1.27e5; Renilla normaliser, rep 1: 6238

What is on record for ac?
E2F firefly, rep 1: 43508; Renilla normaliser, rep 1: 3796

What is on record for Nsun5?
E2F firefly, rep 1: 75645; Renilla normaliser, rep 1: 4059

What is on record for Duox?
E2F firefly, rep 1: 1.72e5; Renilla normaliser, rep 1: 5608

Which result is listed for CG11970?
E2F firefly, rep 1: 70072; Renilla normaliser, rep 1: 4095

What did the screen give for Sgp?
E2F firefly, rep 1: 81784; Renilla normaliser, rep 1: 3170

For mRpS30, how do the results read?
E2F firefly, rep 1: 8102; Renilla normaliser, rep 1: 708

With sowah #1, what was measured?
E2F firefly, rep 1: 1.42e5; Renilla normaliser, rep 1: 4708

Which result is listed for sowah #2?
E2F firefly, rep 1: 75251; Renilla normaliser, rep 1: 3820

With chp, how do the results read?
E2F firefly, rep 1: 1985; Renilla normaliser, rep 1: 924

For CG15040, what was measured?
E2F firefly, rep 1: 53340; Renilla normaliser, rep 1: 3640

What is on record for CG7443?
E2F firefly, rep 1: 1.46e5; Renilla normaliser, rep 1: 6753

3 of these entries in another layout:
predicted target	reagent	E2F firefly, rep 1	Renilla normaliser, rep 1
Sgp	1	81784	3170
mRpS30	1	8102	708
sowah	1	1.42e5	4708

More entries follow:
Which result is listed for CG14757?
E2F firefly, rep 1: 1.35e5; Renilla normaliser, rep 1: 5244

With Rab7, what was measured?
E2F firefly, rep 1: 76926; Renilla normaliser, rep 1: 4008

What is on record for Mal-A6?
E2F firefly, rep 1: 1.36e5; Renilla normaliser, rep 1: 5442

For CG8010, what was measured?
E2F firefly, rep 1: 1.63e5; Renilla normaliser, rep 1: 5166

With Pcp, how do the results read?
E2F firefly, rep 1: 1.49e5; Renilla normaliser, rep 1: 5673

With CG4911, what does the deposit list?
E2F firefly, rep 1: 68387; Renilla normaliser, rep 1: 3341

How did the screen score Phk-3?
E2F firefly, rep 1: 1.13e5; Renilla normaliser, rep 1: 4493

For Mct1, how do the results read?
E2F firefly, rep 1: 1.13e5; Renilla normaliser, rep 1: 6142

Which result is listed for Acp63F?
E2F firefly, rep 1: 95617; Renilla normaliser, rep 1: 4132

With CG12325, what does the deposit list?
E2F firefly, rep 1: 2898; Renilla normaliser, rep 1: 174

With PGAP5, how do the results read?
E2F firefly, rep 1: 1.60e5; Renilla normaliser, rep 1: 4834

Which result is listed for CG6701?
E2F firefly, rep 1: 3015; Renilla normaliser, rep 1: 194

For CG12236 #1, how do the results read?
E2F firefly, rep 1: 5240; Renilla normaliser, rep 1: 704

What did the screen give for CG12236 #2?
E2F firefly, rep 1: 99800; Renilla normaliser, rep 1: 5969

For br #1, how do the results read?
E2F firefly, rep 1: 97193; Renilla normaliser, rep 1: 2863

How did the screen score br #2?
E2F firefly, rep 1: 1.16e5; Renilla normaliser, rep 1: 5824

What is on record for br #3?
E2F firefly, rep 1: 62913; Renilla normaliser, rep 1: 3745

What is on record for br #4?
E2F firefly, rep 1: 1.23e5; Renilla normaliser, rep 1: 4845

With CG2871, how do the results read?
E2F firefly, rep 1: 67892; Renilla normaliser, rep 1: 4879

Which result is listed for Trxr1?
E2F firefly, rep 1: 7831; Renilla normaliser, rep 1: 720

With Mnt #1, how do the results read?
E2F firefly, rep 1: 1583; Renilla normaliser, rep 1: 828

With Mnt #2, what does the deposit list?
E2F firefly, rep 1: 83448; Renilla normaliser, rep 1: 4993
